Results are given in words; binding and its absence hold for the method and conditions named. Binding seen in cells or lysates may run through a third protein. Here binding means that the protein was enriched with, or labelled near, the bait; the list need not be complete.
Molecular target: BIN2-YFP-TbID (full-length BIN2 fused with YFP and TurboID), in transgenic Arabidopsis (Arabidopsis thaliana) (UniProt Q39011)
Assay: proximity labelling; TbPL-MS: transgenic Arabidopsis seedlings with BIN2-YFP-TbID against YFP-YFP-TbID control, 14N/15N labelling, 50 µM biotin for 3 h, desalting, streptavidin beads, on-bead digestion, LC-MS/MS; BIN2-proximal: ratio >=3 in at least three of four replicates

The chains behind the UniProt entries cited, without tags or fusion partners.
UniProt Q39011: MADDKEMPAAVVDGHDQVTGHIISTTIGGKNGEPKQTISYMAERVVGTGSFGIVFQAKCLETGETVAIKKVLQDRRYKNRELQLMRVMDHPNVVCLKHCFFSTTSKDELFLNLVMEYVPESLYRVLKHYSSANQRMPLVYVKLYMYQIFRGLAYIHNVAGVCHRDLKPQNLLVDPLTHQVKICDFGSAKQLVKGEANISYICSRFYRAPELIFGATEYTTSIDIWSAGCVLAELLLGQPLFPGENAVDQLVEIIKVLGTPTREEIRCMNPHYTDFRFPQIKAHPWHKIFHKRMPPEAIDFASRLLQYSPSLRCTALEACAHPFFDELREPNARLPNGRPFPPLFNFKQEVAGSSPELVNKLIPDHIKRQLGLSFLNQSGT

binding | Binder
binds | PIN-FORMED 7 (protein, UniProt Q940Y5 1-619) MITWHDLYTVLTAVIPLYVAMILAYGSVRWWKIFSPDQCSGINRFVAIFAVPLLSFHFISSNNPYAMNLRFIAADTLQKLIMLTLLIIWANFTRSGSLEWSITIFSLSTLPNTLVMGIPLLIAMYGEYSGSLMVQIVVLQCIIWYTLLLFLFEYRGAKILIMEQFPETGASIVSFKVESDVVSLDGHDFLETDAQIGDDGKLHVTVRKSNASRRSFYGGGGTNMTPRPSNLTGAEIYSLNTTPRGSNFNHSDFYSMMGFPGGRLSNFGPADMYSVQSSRGPTPRPSNFEESCAMASSPRFGYYPGGAPGSYPAPNPEFSTGNKTGSKAPKENHHHVGKSNSNDAKELHMFVWGSNGSPVSDRAGLQVDNGANEQVGKSDQGGAKEIRMLISDHTQNGENKAGPMNGDYGGEEESERVKEVPNGLHKLRCNSTAELNPKEAIETGETVPVKHMPPASVMTRLILIMVWRKLIRNPNTYSSLIGLIWALVAFRWDVAMPKIIQQSISILSDAGLGMAMFSLGLFMALQPKLIACGNSTATFAMAVRFFTGPAVMAVAAMAIGLRGDLLRVAIVQAALPQGIVPFVFAKEYNVHPAILSTGVIFGMLIALPITLVYYILLGL
binds | At5g18610 (protein, UniProt Q1PDV6 1-513) MSGCLPCFGSSAKDAASKDSVKKELSAKDGSVTQSHHISLDKSKSRRGPEQKKELTAPKEGPTAHIAAQTFTFRELAAATKNFRPECLLGEGGFGRVYKGRLETTGQIVAVKQLDRNGLQGNREFLVEVLMLSLLHHPNLVNLIGYCADGDQRLLVYEYMPLGSLEDHLHDLPPDKEPLDWSTRMTIAAGAAKGLEYLHDKANPPVIYRDLKSSNILLGDGYHPKLSDFGLAKLGPVGDKTHVSTRVMGTYGYCAPEYAMTGQLTLKSDVYSFGVVFLELITGRKAIDNARAPGEHNLVAWARPLFKDRRKFPKMADPSLQGRYPMRGLYQALAVAAMCLQEQAATRPLIGDVVTALTYLASQTFDPNAPSGQNSRSGSGPPFIRTRDDRRSLGDGSSLDSPAETRSRLGSPATHKNSPDYRRRDMVREVNAGSEGGSETGGGSGRKWGLSDLEGQESQRGSPASVGRSSRGTPRNRDLDRERAVAEAKVWGENWRERKRATNGPGSFDSTND
binds | CELLULOSE SYNTHASE 3 (protein, UniProt Q941L0 1-1065) MESEGETAGKPMKNIVPQTCQICSDNVGKTVDGDRFVACDICSFPVCRPCYEYERKDGNQSCPQCKTRYKRLKGSPAIPGDKDEDGLADEGTVEFNYPQKEKISERMLGWHLTRGKGEEMGEPQYDKEVSHNHLPRLTSRQDTSGEFSAASPERLSVSSTIAGGKRLPYSSDVNQSPNRRIVDPVGLGNVAWKERVDGWKMKQEKNTGPVSTQAASERGGVDIDASTDILADEALLNDEARQPLSRKVSIPSSRINPYRMVIMLRLVILCLFLHYRITNPVPNAFALWLVSVICEIWFALSWILDQFPKWFPVNRETYLDRLALRYDREGEPSQLAAVDIFVSTVDPLKEPPLVTANTVLSILAVDYPVDKVSCYVSDDGAAMLSFESLAETSEFARKWVPFCKKYSIEPRAPEWYFAAKIDYLKDKVQTSFVKDRRAMKREYEEFKIRINALVSKALKCPEEGWVMQDGTPWPGNNTRDHPGMIQVFLGQNGGLDAEGNELPRLVYVSREKRPGFQHHKKAGAMNALVRVSAVLTNGPFILNLDCDHYINNSKALREAMCFLMDPNLGKQVCYVQFPQRFDGIDKNDRYANRNTVFFDINLRGLDGIQGPVYVGTGCVFNRTALYGYEPPIKVKHKKPSLLSKLCGGSRKKNSKAKKESDKKKSGRHTDSTVPVFNLDDIEEGVEGAGFDDEKALLMSQMSLEKRFGQSAVFVASTLMENGGVPPSATPENLLKEAIHVISCGYEDKSDWGMEIGWIYGSVTEDILTGFKMHARGWRSIYCMPKLPAFKGSAPINLSDRLNQVLRWALGSVEILFSRHCPIWYGYNGRLKFLERFAYVNTTIYPITSIPLLMYCTLPAVCLFTNQFIIPQISNIASIWFLSLFLSIFATGILEMRWSGVGIDEWWRNEQFWVIGGVSAHLFAVFQGILKVLAGIDTNFTVTSKASDEDGDFAELYLFKWTTLLIPPTTLLIVNLVGVVAGVSYAINSGYQSWGPLFGKLFFAFWVIVHLYPFLKGLMGRQNRTPTIVVVWSVLLASIFSLLWVRIDPFTSRVTGPDILECGINC
binds | AtSK12 (BIN2 homolog) (enzyme, UniProt P43289 1-409) MASVGIEPSAAVRESTGNVTDADRLPEEMKDMKIQDDKEMEATIVNGNVTETGHIIVTTIGGRNGQPKQTISYMAERVVGHGSFGVVFQAKCLETGETVAIKKVLQDRRYKNRELQTMRLLDHPNVVSLKHCFFSTTEKDELYLNLVLEYVPETVHRVIKHYNKLNQRMPLVYVKLYTYQIFRSLSYIHRCIGVCHRDIKPQNLLVNPHTHQVKLCDFGSAKVLVKGEPNISYICSRYYRAPELIFGATEYTTAIDVWSAGCVLAELLLGQPLFPGESGVDQLVEIIKVLGTPTREEIKCMNPNYTEFKFPQIKAHPWHKIFHKRMPPEAVDLVSRLLQYSPNLRCAALDSLVHPFFDELRDPNARLPNGRFLPPLFNFKPHELKGVPVEMVAKLVPEHARKQCPWLSL
binds | PIN-FORMED 3 (protein, UniProt Q9S7Z8 1-640) MISWHDLYTVLTAVIPLYVAMILAYGSVRWWKIFSPDQCSGINRFVAIFAVPLLSFHFISTNNPYAMNLRFIAADTLQKIIMLSLLVLWANFTRSGSLEWSITIFSLSTLPNTLVMGIPLLIAMYGEYSGSLMVQIVVLQCIIWYTLLLFLFEFRGAKMLIMEQFPETAASIVSFKVESDVVSLDGHDFLETDAEIGDDGKLHVTVRKSNASRRSFCGPNMTPRPSNLTGAEIYSLSTTPRGSNFNHSDFYNMMGFPGGRLSNFGPADMYSVQSSRGPTPRPSNFEENCAMASSPRFGYYPGGGAGSYPAPNPEFSSTTTSTANKSVNKNPKDVNTNQQTTLPTGGKSNSHDAKELHMFVWSSNGSPVSDRAGLNVFGGAPDNDQGGRSDQGAKEIRMLVPDQSHNGETKAVAHPASGDFGGEQQFSFAGKEEEAERPKDAENGLNKLAPNSTAALQSKTGLGGAEASQRKNMPPASVMTRLILIMVWRKLIRNPNTYSSLIGLIWALVAFRWHVAMPKIIQQSISILSDAGLGMAMFSLGLFMALQPKLIACGNSVATFAMAVRFLTGPAVMAVAAIAIGLRGDLLRVAIVQAALPQGIVPFVFAKEYNVHPAILSTGVIFGMLIALPITLVYYILLGL
binds | NONPHOTOTROPIC HYPOCOTYL3 (protein, UniProt Q9FMF5 1-746) MMWESESDGGVGVGGGGGREYGDGVLSSNKHGGVKTDGFELRGQSWFVATDIPSDLLVKIGDMNFHLHKYPLLSRSGKMNRLIYESRDPDPTILILDDLPGGPEAFELASKFCYGVPVDLTATNISGLRCAAEYLEMTEDLEEGNLIFKTEAFLSYVVLSSWRDSILVLKSCEKLSPWAENLQIVRRCSESIAWKACSNPKGIRWAYTGKAPSPSTTNFAGSSPRWNESKDSSFYCSPSRNTNSQPVPPDWWFEDVSILRIDHFVRVITAIKVKGMRFELLGAVIMHYAGKWLPGLIKEGGVAIAPAMSSAIGGGLGLGGDEMSISCGSNSSGGSSGPDWKGGLHMVLSAGKTNGHQDSVACLAGLGISPKDQRMIVESLISIIPPQKDSVTCSFLLRLLRAANMLKVAPALITELEKRVGMQFEQATLQDLLIPGYNNKGETMYDVDLVQRLLEHFLVQEQTEGSSPSRMSPSPSQSMYADIPRGNNNNGGGGGGNNQNAKMRVARLVDSYLTEVARDRNLPLTKFQVLAEALPESARTCDDGLYRAIDSYLKAHPTLSEHERKRLCRVMDCQKLSMDACMHAAQNERLPLRVVVQVLFSEQVKISNALANTSLKESTTLGEAMGTYQPMIPNRKTLIEATPQSFQEGWAAAKKDINTLKFELETVKTKYVELQNEMEVMQRQFEKTGKVKNTPSSSAWTSGWKKLSKLTKMSGQESHDISSGGEQAGVDHPPPRKPRRWRNSIS
binds | PIN-FORMED 4 (protein, UniProt Q8RWZ6 1-616) MITWHDLYTVLTAVVPLYVAMILAYGSVQWWKIFSPDQCSGINRFVAIFAVPLLSFHFISTNDPYAMNFRFVAADTLQKIIMLVLLALWANLTKNGSLEWMITIFSLSTLPNTLVMGIPLLIAMYGTYAGSLMVQVVVLQCIIWYTLLLFLFEYRGAKLLIMEQFPETGASIVSFKVESDVVSLDGHDFLETDAEIGNDGKLHVTVRKSNASRRSLMMTPRPSNLTGAEIYSLSSTPRGSNFNHSDFYSVMGFPGGRLSNFGPADLYSVQSSRGPTPRPSNFEENNAVKYGFYNNTNSSVPAAGSYPAPNPEFSTGTGVSTKPNKIPKENQQQLQEKDSKASHDAKELHMFVWSSSASPVSDVFGGGAGDNVATEQSEQGAKEIRMVVSDQPRKSNARGGGDDIGGLDSGEGEREIEKATAGLNKMGSNSTAELEAAGGDGGGNNGTHMPPTSVMTRLILIMVWRKLIRNPNTYSSLIGLIWALVAYRWHVAMPKILQQSISILSDAGLGMAMFSLGLFMALQPKIIACGNSVATFAMAVRFITGPAIMAVAGIAIGLHGDLLRIAIVQAALPQGIVPFVFAKEYNVHPTILSTGVIFGMLIALPITLVYYILLGL
binds | MAPK kinase kinase YODA (protein, UniProt Q9CAD5 1-883) MPWWSKSKDEKKKTNKESIIDAFNRKLGFASEDRSSGRSRKSRRRRDEIVSERGAISRLPSRSPSPSTRVSRCQSFAERSPAVPLPRPIVRPHVTSTDSGMNGSQRPGLDANLKPSWLPLPKPHGATSIPDNTGAEPDFATASVSSGSSVGDIPSDSLLSPLASDCENGNRTPVNISSRDQSMHSNKNSAEMFKPVPNKNRILSASPRRRPLGTHVKNLQIPQRDLVLCSAPDSLLSSPSRSPMRSFIPDQVSNHGLLISKPYSDVSLLGSGQCSSPGSGYNSGNNSIGGDMATQLFWPQSRCSPECSPVPSPRMTSPGPSSRIQSGAVTPLHPRAGGSTTGSPTRRLDDNRQQSHRLPLPPLLISNTCPFSPTYSAATSPSVPRSPARAEATVSPGSRWKKGRLLGMGSFGHVYLGFNSESGEMCAMKEVTLCSDDPKSRESAQQLGQEISVLSRLRHQNIVQYYGSETVDDKLYIYLEYVSGGSIYKLLQEYGQFGENAIRNYTQQILSGLAYLHAKNTVHRDIKGANILVDPHGRVKVADFGMAKHITAQSGPLSFKGSPYWMAPEVIKNSNGSNLAVDIWSLGCTVLEMATTKPPWSQYEGVPAMFKIGNSKELPDIPDHLSEEGKDFVRKCLQRNPANRPTAAQLLDHAFVRNVMPMERPIVSGEPAEAMNVASSTMRSLDIGHARSLPCLDSEDATNYQQKGLKHGSGFSISQSPRNMSCPISPVGSPIFHSHSPHISGRRSPSPISSPHALSGSSTPLTGCGGAIPFHHQRQTTVNFLHEGIGSSRSPGSGGNFYTNSFFQEPSRQQDRSRSSPRTPPHVFWDNNGSIQPGYNWNKDNQPVLSDHVSQQLLSEHLKLKSLDLRPGFSTPGSTNRGP

Reference: publication PMC10015162
